From patent US20220364139A1, “METHODS FOR DETERMINING GROWTH AND RESPONSE” (PATAIGIN, LLC, priority 2019, published 2022)
Entries after “also recorded” stand apart in the source; their conditions may differ. At least one structure is not confirmed: it was looked up by name or label, or the drawing left a doubt.

Tested on: P. fluorescens strain that is susceptible to kanamycin
Experiment: Growth inhibition of P. fluorescens in 8% D2O, read from deuterated vs undeuterated membrane lipid ions by MALDI mass spectrometry
Assay type: cell-based, Pseudomonas fluorescens
Experimental: In FIG. 1 is shown eight MALDI mass spectra from about 680 to 730 m/z in negative ionization mode of membrane lipids extracted from a P. fluorescens strain that is susceptible to kanamycin. The aforementioned P. fluorescens strain was grown in seven environments containing Mueller-Hinton media and water containing 8% D2O, with each of the seven environments also having a concentration of kanamycin from 0 μg/mL to 200 μg/mL.
Extract samples using the method of embodiment 1b, as follows: skip optional step 2 of embodiment 1b; perform step 3 of embodiment 1b by drying the plate at 80° C. for about 5 min; perform step 4 of embodiment 1b by applying 1 μL of a solution of chloroform-methanol-water at a ratio by volume of 12:6:1, to which 10 mg/mL of beta-carboline has been added.
3. Place at least one MALDI plate in a mass spectrometer or otherwise present some or all of the extracted lipids and/or other analytes to a mass spectrometer, then collect mass spectra from said lipids and/or other analytes. In at least one embodiment, a single spectrum is collected. In at least one embodiment, multiple spectra are collected. In at least one embodiment, multiple spectra with different m/z (mass to charge ratio) ranges are collected. In at least one embodiment, at least one spectrum is collected with a lowest m/z of less than 300 m/z or about 300, 600, 660, 700, 800, or 1000 m/z. In at least one embodiment a spectrum is collected with a lowest m/z of greater than 1000 m/z. In at least one embodiment a spectrum is collected with a highest m/z of less than 400 m/z or about 400, 500, 600, 700, 780, 800, 1000, 1200, 1500, 1800, 2000, 2200, 2400, or 2500 m/z. In at least one embodiment a spectrum is collected with a highest m/z of higher than 2500 m/z. In at least one embodiment, two or more spectra are collected that differ in mass spectrometer parameters other than mass range, such as without limiting the invention in any way, detector gain. In at least one embodiment, at least one mass spectrum is collected that is a MALDI mass spectrum. In at least one embodiment, at least two mass spectra are collected that are MALDI mass spectra, collected from the same spot on a MALDI plate. In at least one embodiment, at least two mass spectra are collected that are MALDI mass spectra, collected from different spots on the same or different MALDI plates.
In FIG. 1 can be seen multiple spectra for samples of a P. fluorescens strain that is susceptible to kanamycin, grown under different conditions, then extracted with a method of embodiment 1d and analyzed with a method of embodiment 2 using negative ionization mode. From bottom to top, the spectra come from samples cultured as follows according to the last letters of the legend of the figure: control: no D2O, no kanamycin; H4: 8% D2O, no kanamycin; G5: 8% D2O, 0.195 μg/mL kanamycin; F5: 8% D2O, 0.780 μg/mL kanamycin; E5: 8% D2O, 3.125 μg/mL kanamycin; D5: 8% D2O, 12.5 μg/mL kanamycin; C5: 8% D2O, 50.0 μg/mL kanamycin; B5: 8% D2O, 200 μg/mL kanamycin.
In FIG. 2 can be seen a graph of the ratio of heavy/light LA ions from the spectra in FIG. 1, where light LA is measured as the intensity of the ion peak at 688.5 m/z and heavy LA is measured as the intensity of the ion peak at 692.5 m/z.

NC[C@H]1O[C@H](O[C@H]2[C@H](O)[C@@H](O[C@H]3O[C@H](CO)[C@@H](O)[C@H](N)[C@H]3O)[C@H](N)C[C@@H]2N)[C@H](O)[C@@H](O)[C@@H]1O [kanamycin]
growth of P. fluorescens indicated by deuterated ion peaks (0.195 μg/mL kanamycin, 8% D2O (spectrum G5)): evidence of growth | growth of P. fluorescens indicated by deuterated ion peaks (3.125 μg/mL kanamycin, 8% D2O (spectrum E5)): impaired growth | growth of P. fluorescens indicated by deuterated ion peaks (12.5 μg/mL kanamycin, 8% D2O, Mueller-Hinton media (spectrum D5)): stronger impairment of growth; also recorded: growth of P. fluorescens occurred | growth of P. fluorescens indicated by deuterated ion peaks (50 μg/mL kanamycin, 8% D2O, Mueller-Hinton media (spectrum C5)): no significant growth; also recorded: inhibited | growth of P. fluorescens indicated by deuterated ion peaks (200 μg/mL kanamycin, 8% D2O, Mueller-Hinton media (spectrum B5)): no evidence of growth; also recorded: no significant growth; also recorded: inhibited | relationship between heavy/light ratio and antibiotic concentration (range of antibiotic concentrations, 8% D2O, FIG. 2): lowest at the highest antibiotic concentrations
